Reference: article doi:10.1101/2025.10.26.684708
Results are given in words; binding and its absence hold for the method and conditions named. Binding seen in cells or lysates may run through a third protein.

Molecular target: T1, endogenous UCP1 of mouse brown adipose tissue (mouse (endogenous in BAT)) (UniProt P12242)
T1 sequence: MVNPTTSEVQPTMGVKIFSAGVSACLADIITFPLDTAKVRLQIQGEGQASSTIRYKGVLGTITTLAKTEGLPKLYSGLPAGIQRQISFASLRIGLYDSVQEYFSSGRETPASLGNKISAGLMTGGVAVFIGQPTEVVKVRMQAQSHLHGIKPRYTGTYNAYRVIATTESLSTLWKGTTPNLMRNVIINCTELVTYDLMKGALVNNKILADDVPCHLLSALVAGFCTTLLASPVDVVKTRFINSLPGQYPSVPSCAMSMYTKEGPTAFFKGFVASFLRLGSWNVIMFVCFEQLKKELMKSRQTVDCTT
Assay: co-IP

For β-TrCP, the binding was “no binding”.
